Assay results reported in patent publication US12054483B2, “Small molecule inhibitors of DYRK/CLK and uses thereof” (Arizona Board of Regents on Behalf of the University of …, priority 2018, dated 2024).
The match of structure and compound is tentative.

Target: DYRK1A (Homo sapiens, UniProt Q13627)
Test: Affinity testing of compounds with DYRK1A (KD)
Format: binding
Conditions: read-out: KD (DYRK1A); DYRK1A affinity key classes

Work on `Cc1nc2ccc(-c3ccnc(N)c3)nc2n1-c1ccc2c(c1)CCN2` yielded a Kd of 0.5 to 100 nM.
